Source: PubChem BioAssay AID504834 (National Center for Advancing Translational Sciences (NCATS), 2011)
In all, about 320,000 compounds went through this assay and about 22,000 (6.9%) were called active. The shares of active, inactive and inconclusive entries below differ from those in the screen. Calls follow the shape of the dose curve; as a rule, active = well fitted inhibition curve with a large enough effect; inconclusive = small, poorly fitted or top-dose-only effect, or another doubt; inactive = no such curve, though single readings can be large or run the other way. A potency beside an inconclusive call is a rough fit, not a confirmed value.

Assay: Primary qHTS for delayed death inhibitors of the malarial parasite plastid, 96 hour incubation
Details: P. falciparum luciferase reporter growth; series mostly up to 28.7 µM; activity change, negative = inhibition: at the top concentration
How it was run: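 Cell-based qHTS: luciferase-tagged P. falciparum in erythrocytes (2% hematocrit, 0.05% parasitemia final) incubated with compounds for 96 hours, 37 C, 5% CO2; luciferase detection reagent then added and luminescence measured.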
% is scaled to controls: 0 for no effect and ±100 for the full control effect; potency is read from the fitted curve at half-maximal effect.

| Compound | Potency | activity change, negative = inhibition |
| --- | --- | --- |
| COc1cccc(Nc2ccc(C(=O)O)cc2N)c1 | inconclusive: 1.31 µM [inhibitor, full curve, poor fit] | – |
| CCCCCCOc1ccc(C(=O)n2cnc(N)n2)cc1 | inconclusive: 2.94 µM [inhibitor, full curve] | – |
| CN(C(=O)CN1C(=O)c2ccccc2S1(=O)=O)c1ccccc1C(=O)O | inconclusive: 0.165 µM [inhibitor, full curve] | – |
| N#Cc1cc2c(ccc3ccccc32)oc1=O | inconclusive: 1.85 µM [inhibitor, full curve] | – |
| COc1ccc(-c2coc3cc(OC(=O)N4CCOCC4)ccc3c2=O)cc1 | inconclusive: 18.5 µM [inhibitor, single point] | – |
| COc1ccc(C2=NC(C(F)(F)F)(C(F)(F)F)c3c(n(C)c(=O)n(C)c3=O)N2)cc1 | inconclusive: 0.147 µM [inhibitor, full curve, poor fit] | – |
| NC(=O)C1CCC(NC(=O)OCc2ccccc2)CC1 (stereo not given) | active: 6.57 µM | – |
| CC(=O)OCC[C@H](NS(=O)(=O)OCC(Cl)(Cl)Cl)c1ccccc1 | inconclusive: 4.65 µM [inhibitor, single point] | – |
| NNC(=O)COc1ccccc1F | inconclusive: 10.4 µM [inhibitor, single point] | – |
| C/C(=N\NC(=O)C(C)n1nc(C)c([N+](=O)[O-])c1C)c1ccccc1O (stereo not given) | inconclusive: 2.94 µM [inhibitor, full curve, poor fit] | – |
| O=C(CC1CCCCC1)NCCS(=O)(=O)N1CCN(c2ccccc2)CC1 | – | inactive: -0.7% |
| COc1ccc2nc(Nc3ccc4c(c3)OCO4)sc2c1 | – | inactive: 0.876% |
| O=S(=O)(c1ccc(F)cc1)N1CCN(c2ccccn2)CC1 | – | inactive: -0.277% |
| Cc1ccccc1CN1CCN(Cc2cc3ccccc3o2)CC1CCO (stereo not given) | inconclusive: 13.1 µM [inhibitor, partial curve, poor fit] | – |
| Cc1ccc(NC2CCCN(C(=O)CN3C(=O)c4ccccc4C3=O)C2)cc1C (stereo not given) | active: 14.7 µM | – |
| Cc1ccc2oc(C(=O)NCC3CCOCC3)c(C)c2c1 | active: 10.4 µM | – |
| CCOc1cc2c3c(c1)C1(Nc4ccccc4S1)C(=O)N3C(C)(C)CC2C (stereo not given) | inconclusive: 18.5 µM [inhibitor, single point] | – |
| CCOC(=O)c1c(NC(=O)COC(=O)CCOc2ccc(C)cc2)sc(C(=O)N(C)C)c1C | – | inactive: 21.3% |
| COc1ccc2[nH]c(=O)c(CN(Cc3nnnn3Cc3ccccc3)CC3CCCO3)cc2c1 (stereo not given) | – | inactive: 12% |
| COc1ccccc1CNC(=O)N1CCN(c2ccccc2C)CC1 | inconclusive: 11.7 µM [inhibitor, partial curve] | – |
| Cc1ccc(OCC(=O)Nc2ccc(NC(=O)c3ccccc3)c(C)c2)cc1 | inconclusive: 10.4 µM [inhibitor, partial curve, poor fit] | – |
| O=C(CN1C(=O)c2cccc([N+](=O)[O-])c2C1=O)NCc1ccccc1 | – | inactive: 19% |
| CCn1c(CNC(=O)c2cccc(C)c2)nnc1SCC(=O)NC1=NCCS1 | inconclusive: 1.65 µM [inhibitor, full curve] | – |

| Compound | Potency | activity change, negative = inhibition |
| --- | --- | --- |
| Nc1nc(-c2cccc(NS(=O)(=O)c3ccccc3)c2)cs1 | – | inactive: -9.5% |
| Cc1ccc(CCNC(=O)C2CCCN(c3nc4ccccc4o3)C2)cc1 (stereo not given) | inconclusive: 0.0329 µM [inhibitor, full curve, poor fit] | – |
| Cc1cc(NC(=O)CSc2nnnn2-c2ccccc2C)no1 | inconclusive: 9.28 µM [inhibitor, partial curve, poor fit] | – |
| C[C@H](CCC(=O)O)[C@H]1CC[C@H]2[C@@H]3[C@H](O)C[C@@H]4C[C@H](O)CC[C@]4(C)[C@H]3CC[C@]12C | inconclusive: 8.28 µM [inhibitor, partial curve, poor fit] | – |
| Clc1ccc(CN2CCN(c3ncnc4scc(-c5cccs5)c34)CC2)cc1 | active: 13.1 µM | – |
| COC(=O)Cc1ccc(NC(=S)Nc2cccc(C)n2)cc1 | inconclusive: 18.5 µM [inhibitor, single point] | – |
| Cn1cc[n+](C)c1COc1ccc(C=O)cc1 | inconclusive: 18.5 µM [inhibitor, single point] | – |
| C=CCN(CC=C)CCCOc1ccccc1C(=O)OC | inconclusive: 0.104 µM [inhibitor, full curve, poor fit] | – |
| CC1Cc2ccccc2N1C(=O)CSC1=NCCS1 (stereo not given) | inconclusive: 14.7 µM [inhibitor, partial curve, poor fit] | – |
| Cc1ccc(S(=O)(=O)N2CCCOC2CNC(=O)C(=O)NCc2cccs2)cc1 (stereo not given) | inconclusive: 9.28 µM [inhibitor, partial curve, poor fit] | – |
| CCOC(=O)CC(=O)c1sc2c(c1N)c(=O)[nH]c(=O)n2-c1ccc(OC)cc1 | active: 5.22 µM | – |
| CC(=O)N1CCCc2cc(S(=O)(=O)CCC(=O)Nc3cccc(C)c3C)ccc21 | inconclusive: 18.5 µM [inhibitor, single point] | – |
| COc1cc2c(cc1OC)CN(Cc1cc(OC)c(O)c(OC)c1)CC2 | inconclusive: 0.208 µM [inhibitor, full curve, poor fit] | – |
| Cc1[nH]c2ccccc2c1C(=O)CN1CC=C(c2ccccc2)CC1 | inconclusive: 4.15 µM [inhibitor, partial curve] | – |
| Cn1nnnc1SCC(=O)N1CCOCC1 | inconclusive: 18.5 µM [inhibitor, single point] | – |
| CCCS(=O)(=O)c1nc(S(=O)(=O)c2ccc(C)cc2)c(NCCCN2CCCC2=O)s1 | active: 9.28 µM | – |
| COc1cc(/C=N/N2C(C)CCCC2C)cc(OC)c1O (stereo not given) | – | inactive: -1.32% |
| Cc1ccc(NC(=O)CSc2nc(=O)n(CCCN3CCOCC3)c3c2CCCC3)cc1 | – | inactive: -24.4% |
| CC(C)NC(=O)c1ccc(Cl)cc1Cl | inconclusive: 9.28 µM [inhibitor, single point] | – |
| CCc1ccc(OC(=O)c2cncc(Br)c2)cc1 | inconclusive: 10.4 µM [inhibitor, single point] | – |
| N=C1SCC(=O)N1/N=C/c1ccccc1 | inconclusive: 1.17 µM [inhibitor, partial curve, poor fit] | – |
| O=c1[nH]c2ccc(Cl)cc2c(-c2ccccc2)c1N1CCN(c2ccccn2)CC1 | inconclusive: 0.415 µM [inhibitor, full curve, poor fit] | – |

In a second layout: four of the compounds above.
COC(=O)Cc1ccc(NC(=S)Nc2cccc(C)n2)cc1
  Potency: inconclusive: 18.5 µM [inhibitor, single point]
C=CCN(CC=C)CCCOc1ccccc1C(=O)OC
  Potency: inconclusive: 0.104 µM [inhibitor, full curve, poor fit]
Cc1ccc(S(=O)(=O)N2CCCOC2CNC(=O)C(=O)NCc2cccs2)cc1 (stereo not given)
  Potency: inconclusive: 9.28 µM [inhibitor, partial curve, poor fit]
Cc1[nH]c2ccccc2c1C(=O)CN1CC=C(c2ccccc2)CC1
  Potency: inconclusive: 4.15 µM [inhibitor, partial curve]
